# In the supplement of paper PMC8728848:
# This is one part of the list.
# B1: BT4246 (Bacteroides thetaiotaomicron), Q89ZX5 (protein)
# chain: MGSSHHHHHHENLYFQGHMASDYLDVVPPEQPNIDDAMSSPTRALGFLYSCYGGVSTDLPSAYLGEINSTTDEYVLPYSWNTDGYWGAYAFNTASSTNQDWLWGTTYQYIGQCYLFLQKLENAGSDIASDAEKEQWRAECQFLVAYYHFATLRRYGPIPITDSYIPMDTPTSEYNGRFHFDYCVDWIANQLDEAAKVLPANRTVTNEWGRATSTIAKAVKARLLLYAASPLWNGSFPYPNWQNENFETPGYGKALVSNTYDKSKWERALAACQEALTLATTSGDRELYDDDEYYSRQSLNLPFVPGVADVEDNKEFLKNVMKMRYAVSTRESEGNKEIIWGLSNQFDFYSRYPLRILKKSDGTWHAGYSGVSPTLYTFEHFYTANGKLPEKDLDFTPSSEWFESAGISSREDIIKLNVGREPRFYAWMAFDGGDYGTKFAAGSPLKLEMRNSEMHGYNPSLFNRDHSVTGFLTQKFVDPVTEFYTAGGSTSGTSAPTILFRLAELYLNVAECHAALGNTQEAIDALNPVRERAGIPKLTLADITNNMTIKDWVHNERFVELWNEGHRFFDVRRWAEGAKYFGANKREGLNAEVQSPTFEEFNKRTTVDAPYVWENRMYLNPVFYNEVYKNPQMVQAPGY
# Columns and labels:
# Assay in all cases: glycan array binding signal (z-score within array); higher = stronger binding
# Details in all cases: glycan notation: IUPAC condensed, linker removed
# [1] = target: Neu5Ac(a2-3)Gal(b1-3)GlcNAc(b1-6)GalNAc
# In short: (§1)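 The binding signal is a Z-score computed within each array. Data were drawn from 3228 arrays in the Consortium for Functional Glycomics database, restricted to those with a known protein sequence. Scores were averaged over arrays of the same protein sequence at different concentrations or buffers, and over linkers, and negative values can be taken as non-binding.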
# [2] = target: Neu5Ac(a2-3)Gal(b1-3)GlcNAc6S
# In short: as §1
# [3] = target: Neu5Ac(a2-3)Gal(b1-3)[Fuc(a1-4)]GlcNAc
# In short: as §1
# [4] = target: Neu5Ac(a2-3)Gal(b1-3)[Fuc(a1-4)]GlcNAc(b1-3)Gal(b1-3)[Fuc(a1-4)]GlcNAc
# In short: as §1
# [5] = target: Neu5Ac(a2-3)Gal(b1-3)[Fuc(a1-4)]GlcNAc(b1-3)Gal(b1-4)[Fuc(a1-3)]GlcNAc
# In short: as §1
# [6] = target: Neu5Ac(a2-3)Gal(b1-3)[GlcNAc(b1-6)]GalNAc
# In short: as §1
# [7] = target: Neu5Ac(a2-3)Gal(b1-3)[Neu5Ac(a2-6)]GalNAc
# In short: as §1
# [8] = target: Neu5Ac(a2-3)Gal(b1-3)[Neu5Ac(a2-6)]GlcNAc(b1-3)[Fuc(a1-3)[Gal(b1-4)]GlcNAc(b1-6)]Gal(b1-4)Glc
# In short: as §1
# [9] = target: Neu5Ac(a2-3)Gal(b1-3)]Neu5Ac(a2-3)Gal(b1-4)]GlcNAc
# In short: as §1
# [10] = target: Neu5Ac(a2-3)Gal(b1-4)Glc
# In short: as §1
# [11] = target: Neu5Ac(a2-3)Gal(b1-4)GlcNAc
# In short: as §1
# [12] = target: Neu5Ac(a2-3)Gal(b1-4)GlcNAc(b1-2)Man
# In short: as §1
# [13] = target: Neu5Ac(a2-3)Gal(b1-4)GlcNAc(b1-2)Man(a1-3)[GlcNAc(b1-4)][Neu5Ac(a2-3)Gal(b1-4)GlcNAc(b1-2)Man(a1-6)]Man(b1-4)GlcNAc(b1-4)GlcNAc
# In short: as §1
# [14] = target: Neu5Ac(a2-3)Gal(b1-4)GlcNAc(b1-2)Man(a1-3)[Neu5Ac(a2-3)Gal(b1-4)GlcNAc(b1-2)Man(a1-6)]Man(b1-4)GlcNAc(b1-4)GlcNAc
# In short: as §1
# [15] = target: Neu5Ac(a2-3)Gal(b1-4)GlcNAc(b1-2)Man(a1-3)[Neu5Ac(a2-3)Gal(b1-4)GlcNAc(b1-2)Man(a1-6)]Man(b1-4)GlcNAc(b1-4)[Fuc(a1-6)]GlcNAc
# In short: as §1
# [16] = target: Neu5Ac(a2-3)Gal(b1-4)GlcNAc(b1-2)Man(a1-3)[Neu5Ac(a2-6)Gal(b1-4)GlcNAc(b1-2)Man(a1-6)]Man(b1-4)GlcNAc(b1-4)GlcNAc
# In short: as §1
# [17] = target: Neu5Ac(a2-3)Gal(b1-4)GlcNAc(b1-2)[Neu5Ac(a2-3)Gal(b1-4)GlcNAc(b1-4)]Man(a1-3)[GlcNAc(b1-4)][Neu5Ac(a2-3)Gal(b1-4)GlcNAc(b1-2)[Neu5Ac(a2-3)Gal(b1-4)GlcNAc(b1-6)]Man(a1-6)]Man(b1-4)GlcNAc(b1-4)GlcNAc
# In short: as §1
# [18] = target: Neu5Ac(a2-3)Gal(b1-4)GlcNAc(b1-2)[Neu5Ac(a2-3)Gal(b1-4)GlcNAc(b1-4)]Man(a1-3)[GlcNAc(b1-4)][Neu5Ac(a2-3)Gal(b1-4)GlcNAc(b1-4)Man(a1-6)]Man(b1-4)GlcNAc(b1-4)GlcNAc
# In short: as §1
# [19] = target: Neu5Ac(a2-3)Gal(b1-4)GlcNAc(b1-2)[Neu5Ac(a2-3)Gal(b1-4)GlcNAc(b1-6)]Man(a1-6)[Neu5Ac(a2-3)Gal(b1-4)GlcNAc(b1-2)Man(a1-3)][GlcNAc(b1-4)]Man(b1-4)GlcNAc(b1-4)GlcNAc
# In short: as §1
# [20] = target: Neu5Ac(a2-3)Gal(b1-4)GlcNAc(b1-3)Gal
# In short: as §1
# [21] = target: Neu5Ac(a2-3)Gal(b1-4)GlcNAc(b1-3)Gal(b1-3)GlcNAc
# In short: as §1
# [22] = target: Neu5Ac(a2-3)Gal(b1-4)GlcNAc(b1-3)Gal(b1-4)GlcNAc
# In short: as §1
# [23] = target: Neu5Ac(a2-3)Gal(b1-4)GlcNAc(b1-3)Gal(b1-4)GlcNAc(b1-2)Man(a1-3)[Neu5Ac(a2-3)Gal(b1-4)GlcNAc(b1-3)Gal(b1-4)GlcNAc(b1-2)Man(a1-6)]Man(b1-4)GlcNAc(b1-4)GlcNAc
# In short: as §1
# [24] = target: Neu5Ac(a2-3)Gal(b1-4)GlcNAc(b1-3)Gal(b1-4)GlcNAc(b1-3)Gal(b1-4)GlcNAc
# In short: as §1
# [25] = target: Neu5Ac(a2-3)Gal(b1-4)GlcNAc(b1-3)Gal(b1-4)GlcNAc(b1-3)Gal(b1-4)GlcNAc(b1-2)Man(a1-3)[Neu5Ac(a2-3)Gal(b1-4)GlcNAc(b1-3)Gal(b1-4)GlcNAc(b1-3)Gal(b1-4)GlcNAc(b1-2)Man(a1-6)]GalNAc
# In short: as §1
# [26] = target: Neu5Ac(a2-3)Gal(b1-4)GlcNAc(b1-3)Gal(b1-4)GlcNAc(b1-3)GalNAc
# In short: as §1
# [27] = target: Neu5Ac(a2-3)Gal(b1-4)GlcNAc(b1-3)Gal(b1-4)GlcNAc(b1-3)[Neu5Ac(a2-3)Gal(b1-4)GlcNAc(b1-3)Gal(b1-4)GlcNAc(b1-6)]GalNAc
# In short: as §1
# [28] = target: Neu5Ac(a2-3)Gal(b1-4)GlcNAc(b1-3)Gal(b1-4)GlcNAc(b1-6)[Gal(b1-3)]GalNAc
# In short: as §1
# [29] = target: Neu5Ac(a2-3)Gal(b1-4)GlcNAc(b1-3)Gal(b1-4)[Fuc(a1-3)]GlcNAc
# In short: as §1
# [30] = target: Neu5Ac(a2-3)Gal(b1-4)GlcNAc(b1-3)GalNAc
# In short: as §1
binder,measurement,setting,value
B1,glycan array binding signal (z-score),[1],0.34
same,glycan array binding signal (z-score),[2],0.114
same,glycan array binding signal (z-score),[3],-0.203
same,glycan array binding signal (z-score),[4],0.707
same,glycan array binding signal (z-score),[5],0.647
same,glycan array binding signal (z-score),[6],-0.132
same,glycan array binding signal (z-score),[7],-0.758
same,glycan array binding signal (z-score),[8],-0.055
same,glycan array binding signal (z-score),[9],-0.658
same,glycan array binding signal (z-score),[10],-0.458
same,glycan array binding signal (z-score),[11],1.26
same,glycan array binding signal (z-score),[12],-0.803
same,glycan array binding signal (z-score),[13],-1.16
same,glycan array binding signal (z-score),[14],0.72
same,glycan array binding signal (z-score),[15],0.004
same,glycan array binding signal (z-score),[16],1.6
same,glycan array binding signal (z-score),[17],0.49
same,glycan array binding signal (z-score),[18],-1.41
same,glycan array binding signal (z-score),[19],-0.263
same,glycan array binding signal (z-score),[20],-0.929
same,glycan array binding signal (z-score),[21],-0.03
same,glycan array binding signal (z-score),[22],-0.556
same,glycan array binding signal (z-score),[23],0.664
same,glycan array binding signal (z-score),[24],0.618
same,glycan array binding signal (z-score),[25],2.21
same,glycan array binding signal (z-score),[26],-1.15
same,glycan array binding signal (z-score),[27],0.468
same,glycan array binding signal (z-score),[28],0.439
same,glycan array binding signal (z-score),[29],1.87
same,glycan array binding signal (z-score),[30],-0.143

# Part of the list above, reformatted.
binder | measurement | setting | value
B1 | glycan array binding signal (z-score) | [22] | -0.556
same | glycan array binding signal (z-score) | [23] | 0.664
